This passage reports binding results from article PMC9794804.

Sequences of proteins named here, by UniProt entry; tags and fusion partners are left off.
UniProt P42227: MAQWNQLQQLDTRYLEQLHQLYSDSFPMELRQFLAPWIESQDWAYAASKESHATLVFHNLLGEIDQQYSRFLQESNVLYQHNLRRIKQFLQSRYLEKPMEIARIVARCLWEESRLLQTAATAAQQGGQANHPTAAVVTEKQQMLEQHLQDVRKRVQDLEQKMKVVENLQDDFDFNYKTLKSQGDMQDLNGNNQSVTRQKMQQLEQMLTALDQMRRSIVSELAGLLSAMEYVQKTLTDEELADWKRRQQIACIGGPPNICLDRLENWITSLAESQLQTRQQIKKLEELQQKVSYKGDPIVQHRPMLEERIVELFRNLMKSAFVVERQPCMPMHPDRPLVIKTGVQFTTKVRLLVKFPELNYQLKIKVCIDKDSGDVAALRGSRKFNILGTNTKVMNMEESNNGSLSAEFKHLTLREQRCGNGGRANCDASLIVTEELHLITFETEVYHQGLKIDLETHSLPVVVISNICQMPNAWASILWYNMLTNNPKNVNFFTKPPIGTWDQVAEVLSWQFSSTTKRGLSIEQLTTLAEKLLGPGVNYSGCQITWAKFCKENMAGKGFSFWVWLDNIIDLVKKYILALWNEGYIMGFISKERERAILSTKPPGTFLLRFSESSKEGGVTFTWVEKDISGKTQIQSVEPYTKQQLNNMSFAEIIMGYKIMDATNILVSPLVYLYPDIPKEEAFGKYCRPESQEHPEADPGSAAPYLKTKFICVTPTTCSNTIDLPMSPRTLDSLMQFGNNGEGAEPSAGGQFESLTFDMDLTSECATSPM

Results are given in words; binding and its absence hold for the method and conditions named. Some results given as binding are weak or reduced against the parent protein; the word gives no strength.

The test deals with STAT3 (mouse (endogenous in RAW 264.7)) (UniProt P42227). Kind of test: immunodepletion (flow-through after IP); anti-STAT3 antibody IP from lysates of RAW 264.7 cells treated with PBS or with rmCIRP (1 µg/ml, 24 h), with or without stattic (3 µM); protein A/G magnetic beads; free βPIX left in the flow-through detected by Western blot. In general terms: A western blot detects proteins with antibodies after separation by electrophoresis.

B1: βPIX (protein, UniProt Q9ES28 1-862)
chain: MNSAEQTVTWLITLGVLESPKKTISDPEVFLQASLKDGVVLCRLLERLLPGTIEKVYPEPRNESECLSNIREFLRACGASLRLETFDANDLYQGQNFNKVLSSLVTLNKVTADIGLGSDSVCARPSSHRIKSFDSLGSQSSHSRTSKLLQSQYRSLDMTDNTNSQLVVRAKFNFQQTNEDELSFSKGDVIHVTRVEEGGWWEGTHNGRTGWFPSNYVREIKPSEKPVSPKSGTLKSPPKGFDTTAINKSYYNVVLQNILETEHEYSKELQSVLSTYLRPLQTSDKLSSANTSYLMGNLEEISSFQQVLVQSLEECTKSPEAQQRVGGCFLSLMPQMRTLYLAYCANHPSAVSVLTEHSEDLGEFMETKGASSPGILVLTTGLSKPFMRLDKYPTLLKELERHMEDYHPDRQDIQKSMTAFKNLSAQCQEVRKRKELELQILTEPIRSWEGDDIKTLGSVTYMSQVTIQCAGSEEKNERYLLLFPNLLLMLSASPRMSGFIYQGKLPTTGMTITKLEDSENHRNAFEISGSMIERILVSCTSQQDLHEWVEHLQKQTKVTSVSNPTIKPHSVPSHTLPSHPLTPSSKHADSKPVALTPAYHTLPHPSHHGTPHTTISWGPLEPPKTPKPWSLSCLRPAPPLRPSAALCYKEDLSKSPKTMKKLLPKRKPERKPSDEEFAVRKSTAALEEDAQILKVIEAYCTSAKTRQTLNSTWQGTDLMHNHVLADDDQSSLDSLGRRSSLSRLEPSDLSEDSEYDSIWTAHSYRMGSASRSRKESAPQVLLPEEEKIIVEETKSNGQTVIEEKSLVDTVYALKDEVQELRQDNKKMKKSLEEEQRARKDLEKLVRKVLKNMNDPAWDETNL
As for B1, the binding entry is “binds”.
